In PMC10277729:
Results are given in words; binding and its absence hold for the method and conditions named. In cells and extracts the contact can be indirect. Some entries that bind do so weakly or less than the wild type. Sequences can lack the tags named with a protein.

Biological target: T1, FLAG-FAM111B (human) (UniProt Q6SJ93)
T1 sequence: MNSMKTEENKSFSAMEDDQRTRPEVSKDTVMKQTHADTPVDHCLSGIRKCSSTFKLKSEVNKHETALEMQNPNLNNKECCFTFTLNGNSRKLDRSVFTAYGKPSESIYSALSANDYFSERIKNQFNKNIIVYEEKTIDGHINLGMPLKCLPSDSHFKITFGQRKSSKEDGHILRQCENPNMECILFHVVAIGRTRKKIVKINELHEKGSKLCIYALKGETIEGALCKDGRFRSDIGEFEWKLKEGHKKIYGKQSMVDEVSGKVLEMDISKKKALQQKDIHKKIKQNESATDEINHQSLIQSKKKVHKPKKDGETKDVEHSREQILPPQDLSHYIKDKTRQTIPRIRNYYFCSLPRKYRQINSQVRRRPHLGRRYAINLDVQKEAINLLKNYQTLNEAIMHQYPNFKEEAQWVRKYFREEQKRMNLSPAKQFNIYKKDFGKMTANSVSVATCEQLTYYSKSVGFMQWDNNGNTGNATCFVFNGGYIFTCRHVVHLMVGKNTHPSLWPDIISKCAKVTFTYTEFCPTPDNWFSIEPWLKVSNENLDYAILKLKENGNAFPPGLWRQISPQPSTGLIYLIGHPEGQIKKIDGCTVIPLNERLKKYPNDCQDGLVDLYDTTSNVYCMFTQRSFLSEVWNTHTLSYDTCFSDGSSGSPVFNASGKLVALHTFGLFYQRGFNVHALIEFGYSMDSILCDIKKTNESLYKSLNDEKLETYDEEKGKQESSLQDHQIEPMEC
Experiment: co-IP; transiently transfected HEK293T lysed in 20 mM HEPES pH7.4, 150 mM KCl, 10% glycerol, 2 mM MgCl2, 0.5 mM DTT, 0.5% NP-40 with benzonase; M2 anti-FLAG agarose 2 h at 4°C, eluted with 3xFLAG peptide, immuno-blots

binding: binds
B1: NUP42 (protein, UniProt O15504 1-423)
chain: MAICQFFLQGRCRFGDRCWNEHPGARGAGGGRQQPQQQPSGNNRRGWNTTSQRYSNVIQPSSFSKSTPWGGSRDQEKPYFSSFDSGASTNRKEGFGLSENPFASLSPDEQKDEKKLLEGIVKDMEVWESSGQWMFSVYSPVKKKPNISGFTDISPEELRLEYHNFLTSNNLQSYLNSVQRLINQWRNRVNELKSLNISTKVALLSDVKDGVNQAAPAFGFGSSQAATFMSPGFPVNNSSSDNAQNFSFKTNSGFAAASSGSPAGFGSSPAFGAAASTSSGISTSAPAFGFGKPEVTSAASFSFKSPAASSFGSPGFSGLPASLATGPVRAPVAPAFGGGSSVAGFGSPGSHSHTAFSKPSSDTFGNSSISTSLSASSSIIATDNVLFTPRDKLTVEELEQFQSKKFTLGKIPLKPPPLELLNV
